The target in assay [1] is TLR4 (mouse (endogenous in BMDMs)) (UniProt Q9QUK6). As to the kind of experiment: affinity purification with mass spectrometry; immunoprecipitation with TLR4 antibody from lysates of BMDMs untreated or treated with LPS (1 ug/ml), Yoda1 (5 uM) or both; mass spectrometry.
Assay [2] has the same target. Described as above. This is another data set of the same source.

Amino acid sequences for entries named in this document (tags omitted). Residues count along the entry.
UniProt Q9QUK6, residues 26-835: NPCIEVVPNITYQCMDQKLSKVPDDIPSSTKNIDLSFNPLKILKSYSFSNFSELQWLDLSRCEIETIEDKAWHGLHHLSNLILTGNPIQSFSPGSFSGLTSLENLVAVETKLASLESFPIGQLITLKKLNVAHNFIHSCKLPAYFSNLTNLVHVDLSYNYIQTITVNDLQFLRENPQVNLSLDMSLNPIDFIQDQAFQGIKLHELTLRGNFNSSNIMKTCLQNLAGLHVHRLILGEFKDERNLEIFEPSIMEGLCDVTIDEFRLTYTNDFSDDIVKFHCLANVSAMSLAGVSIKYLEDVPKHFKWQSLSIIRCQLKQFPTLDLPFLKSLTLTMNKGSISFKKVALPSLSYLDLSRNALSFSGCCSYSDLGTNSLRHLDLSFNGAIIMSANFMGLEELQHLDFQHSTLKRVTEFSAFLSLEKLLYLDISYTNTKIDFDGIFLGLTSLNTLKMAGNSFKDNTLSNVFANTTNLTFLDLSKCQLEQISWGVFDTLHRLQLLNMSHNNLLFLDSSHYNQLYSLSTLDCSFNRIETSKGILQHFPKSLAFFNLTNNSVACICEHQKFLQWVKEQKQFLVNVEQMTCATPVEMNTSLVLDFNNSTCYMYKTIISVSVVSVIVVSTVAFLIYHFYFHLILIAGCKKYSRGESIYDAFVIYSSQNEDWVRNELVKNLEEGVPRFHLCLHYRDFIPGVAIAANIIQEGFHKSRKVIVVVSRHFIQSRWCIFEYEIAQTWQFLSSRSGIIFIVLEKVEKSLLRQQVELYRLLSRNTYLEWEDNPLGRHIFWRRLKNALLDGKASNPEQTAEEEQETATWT
UniProt E2JF22: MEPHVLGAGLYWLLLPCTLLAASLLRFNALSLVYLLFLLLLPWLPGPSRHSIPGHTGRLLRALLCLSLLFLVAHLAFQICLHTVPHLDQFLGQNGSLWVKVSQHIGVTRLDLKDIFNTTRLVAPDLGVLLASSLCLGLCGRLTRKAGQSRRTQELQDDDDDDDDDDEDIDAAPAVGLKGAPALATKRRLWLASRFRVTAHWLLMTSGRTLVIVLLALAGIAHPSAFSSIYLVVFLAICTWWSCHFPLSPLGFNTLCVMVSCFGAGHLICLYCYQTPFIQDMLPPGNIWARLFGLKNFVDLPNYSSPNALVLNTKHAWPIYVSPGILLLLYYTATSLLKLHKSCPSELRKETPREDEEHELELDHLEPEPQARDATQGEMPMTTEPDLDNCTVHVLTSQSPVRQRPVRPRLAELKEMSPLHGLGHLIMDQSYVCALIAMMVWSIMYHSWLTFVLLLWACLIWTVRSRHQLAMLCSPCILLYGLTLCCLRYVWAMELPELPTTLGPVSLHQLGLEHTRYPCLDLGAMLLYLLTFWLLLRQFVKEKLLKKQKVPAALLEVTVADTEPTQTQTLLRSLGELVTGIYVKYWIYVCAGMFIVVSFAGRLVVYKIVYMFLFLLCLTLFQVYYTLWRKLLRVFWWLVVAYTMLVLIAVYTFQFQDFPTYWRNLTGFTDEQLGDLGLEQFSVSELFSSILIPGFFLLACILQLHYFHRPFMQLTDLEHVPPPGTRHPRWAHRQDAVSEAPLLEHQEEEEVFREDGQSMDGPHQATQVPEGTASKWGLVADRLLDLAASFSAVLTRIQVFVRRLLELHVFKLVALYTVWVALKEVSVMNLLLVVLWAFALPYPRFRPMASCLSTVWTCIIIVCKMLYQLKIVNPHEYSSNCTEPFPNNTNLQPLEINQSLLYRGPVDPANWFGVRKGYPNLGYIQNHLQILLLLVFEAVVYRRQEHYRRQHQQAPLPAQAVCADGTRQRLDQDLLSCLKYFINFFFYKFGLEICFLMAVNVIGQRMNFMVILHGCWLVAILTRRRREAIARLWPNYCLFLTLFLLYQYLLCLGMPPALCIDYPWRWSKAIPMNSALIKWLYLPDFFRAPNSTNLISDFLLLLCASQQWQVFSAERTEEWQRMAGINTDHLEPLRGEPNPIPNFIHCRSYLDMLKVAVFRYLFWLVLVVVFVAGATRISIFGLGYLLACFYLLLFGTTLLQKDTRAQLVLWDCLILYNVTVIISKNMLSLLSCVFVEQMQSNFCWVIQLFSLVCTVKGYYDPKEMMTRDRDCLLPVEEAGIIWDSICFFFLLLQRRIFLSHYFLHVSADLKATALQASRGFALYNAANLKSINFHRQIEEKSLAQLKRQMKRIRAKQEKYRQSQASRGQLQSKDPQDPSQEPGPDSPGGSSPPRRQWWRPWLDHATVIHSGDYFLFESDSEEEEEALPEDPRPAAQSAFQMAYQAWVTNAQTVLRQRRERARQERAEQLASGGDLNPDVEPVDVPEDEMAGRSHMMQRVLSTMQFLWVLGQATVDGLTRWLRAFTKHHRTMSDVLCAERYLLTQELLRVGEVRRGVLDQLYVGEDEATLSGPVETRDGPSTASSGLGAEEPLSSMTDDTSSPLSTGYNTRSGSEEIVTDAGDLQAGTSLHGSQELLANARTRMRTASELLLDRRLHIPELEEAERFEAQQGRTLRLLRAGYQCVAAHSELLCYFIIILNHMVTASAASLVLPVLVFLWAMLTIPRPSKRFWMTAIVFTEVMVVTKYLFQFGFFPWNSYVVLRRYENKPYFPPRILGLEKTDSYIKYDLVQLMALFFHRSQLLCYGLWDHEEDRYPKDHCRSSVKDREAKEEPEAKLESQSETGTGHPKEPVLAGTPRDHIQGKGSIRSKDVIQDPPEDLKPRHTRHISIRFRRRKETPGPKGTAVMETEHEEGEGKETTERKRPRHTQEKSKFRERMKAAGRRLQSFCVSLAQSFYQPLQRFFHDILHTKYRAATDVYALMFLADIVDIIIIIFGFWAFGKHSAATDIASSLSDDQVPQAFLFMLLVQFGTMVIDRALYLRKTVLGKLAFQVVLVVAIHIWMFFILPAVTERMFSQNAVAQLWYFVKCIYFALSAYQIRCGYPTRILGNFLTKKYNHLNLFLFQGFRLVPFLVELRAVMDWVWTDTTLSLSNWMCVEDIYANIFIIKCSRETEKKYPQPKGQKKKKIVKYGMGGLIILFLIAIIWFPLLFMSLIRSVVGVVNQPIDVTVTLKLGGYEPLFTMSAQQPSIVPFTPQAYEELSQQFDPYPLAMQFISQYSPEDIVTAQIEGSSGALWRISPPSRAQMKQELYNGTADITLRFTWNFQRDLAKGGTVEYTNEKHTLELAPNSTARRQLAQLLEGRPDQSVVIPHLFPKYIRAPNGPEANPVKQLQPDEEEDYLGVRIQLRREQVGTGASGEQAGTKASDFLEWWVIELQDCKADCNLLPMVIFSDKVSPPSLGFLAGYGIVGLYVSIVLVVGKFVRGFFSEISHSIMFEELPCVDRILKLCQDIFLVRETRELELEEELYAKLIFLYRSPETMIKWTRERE

Like-named read-outs stand apart in the source and are kept apart here. No constants are given. Whether binding was seen depends on the method and setting. Binding seen in cells or lysates may run through a third protein. These calls come from enrichment with a bait or labelling near it, and not all partners need be listed.

Drawing on paper PMC8192512, this text covers binding for 2 molecules.

With Piezo1 (from UniProt E2JF22 1-2547), in assay [1], the binding result is given as “binds”.

B1: MD2 (protein, UniProt Q9JHF9 19-160)
chain: EKQQWFCNSSDAIISYSYCDHLKFPISISSEPCIRLRGTNGFVHVEFIPRGNLKYLYFNLFISVNSIELPKRKEVLCHGHDDDYSFCRALKGETVNTSIPFSFEGILFPKGHYRCVAEAIAGDTEEKLFCLNFTIIHRRDVN
Regarding B1, the binding entry in assay [2] is “binds”.
